The supplement of paper PMC10849652
Some of the results follow.

The chains behind the UniProt entries cited, without tags or fusion partners. Where a name states a change or a piece, a line headed by the entry shows the natural chain unless it says otherwise.
UniProt O94886: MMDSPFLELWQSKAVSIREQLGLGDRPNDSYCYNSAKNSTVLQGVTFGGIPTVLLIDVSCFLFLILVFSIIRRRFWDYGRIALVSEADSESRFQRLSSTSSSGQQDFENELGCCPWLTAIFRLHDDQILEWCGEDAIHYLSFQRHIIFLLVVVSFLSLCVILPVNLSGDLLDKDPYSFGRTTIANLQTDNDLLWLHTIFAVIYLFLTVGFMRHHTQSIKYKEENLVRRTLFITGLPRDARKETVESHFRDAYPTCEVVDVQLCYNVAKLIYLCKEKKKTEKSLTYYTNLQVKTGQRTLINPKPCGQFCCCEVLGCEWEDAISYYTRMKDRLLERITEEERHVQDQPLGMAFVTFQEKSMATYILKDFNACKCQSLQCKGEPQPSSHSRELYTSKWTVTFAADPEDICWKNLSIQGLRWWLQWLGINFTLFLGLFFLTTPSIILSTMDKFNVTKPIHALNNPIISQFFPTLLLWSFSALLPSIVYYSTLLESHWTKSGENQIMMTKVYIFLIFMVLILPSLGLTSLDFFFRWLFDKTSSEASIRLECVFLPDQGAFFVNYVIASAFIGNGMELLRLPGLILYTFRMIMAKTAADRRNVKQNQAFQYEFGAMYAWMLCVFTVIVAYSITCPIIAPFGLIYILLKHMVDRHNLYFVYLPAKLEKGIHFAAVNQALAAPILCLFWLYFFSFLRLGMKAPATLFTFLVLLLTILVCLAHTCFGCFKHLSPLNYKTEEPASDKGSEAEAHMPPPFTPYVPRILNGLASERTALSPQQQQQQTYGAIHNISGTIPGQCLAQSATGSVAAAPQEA
UniProt Q8NFZ5: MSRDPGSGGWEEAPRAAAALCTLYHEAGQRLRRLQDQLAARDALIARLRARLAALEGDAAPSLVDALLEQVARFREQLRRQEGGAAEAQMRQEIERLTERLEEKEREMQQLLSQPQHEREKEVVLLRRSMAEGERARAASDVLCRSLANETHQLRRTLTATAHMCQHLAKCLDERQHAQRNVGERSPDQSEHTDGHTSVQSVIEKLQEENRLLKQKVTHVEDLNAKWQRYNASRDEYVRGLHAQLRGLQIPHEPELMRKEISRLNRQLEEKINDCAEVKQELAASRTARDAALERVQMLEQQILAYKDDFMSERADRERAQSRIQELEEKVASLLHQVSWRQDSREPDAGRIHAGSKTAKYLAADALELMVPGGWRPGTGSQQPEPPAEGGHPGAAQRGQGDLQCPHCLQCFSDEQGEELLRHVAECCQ
UniProt Q6ZVM7: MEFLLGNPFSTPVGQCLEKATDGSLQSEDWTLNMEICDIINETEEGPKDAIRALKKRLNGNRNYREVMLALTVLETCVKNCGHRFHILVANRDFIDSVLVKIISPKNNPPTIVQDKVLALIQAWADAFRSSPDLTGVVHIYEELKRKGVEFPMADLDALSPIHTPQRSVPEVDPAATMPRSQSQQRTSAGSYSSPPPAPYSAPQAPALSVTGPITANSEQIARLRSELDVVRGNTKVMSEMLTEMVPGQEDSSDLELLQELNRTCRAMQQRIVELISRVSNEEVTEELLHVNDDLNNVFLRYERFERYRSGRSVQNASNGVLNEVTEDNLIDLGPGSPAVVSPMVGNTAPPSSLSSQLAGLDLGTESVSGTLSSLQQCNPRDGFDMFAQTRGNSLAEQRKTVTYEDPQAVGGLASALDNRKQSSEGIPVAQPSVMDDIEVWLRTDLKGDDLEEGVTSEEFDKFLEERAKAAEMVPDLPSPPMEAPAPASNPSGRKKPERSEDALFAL
UniProt P06753, whole entry, looked up: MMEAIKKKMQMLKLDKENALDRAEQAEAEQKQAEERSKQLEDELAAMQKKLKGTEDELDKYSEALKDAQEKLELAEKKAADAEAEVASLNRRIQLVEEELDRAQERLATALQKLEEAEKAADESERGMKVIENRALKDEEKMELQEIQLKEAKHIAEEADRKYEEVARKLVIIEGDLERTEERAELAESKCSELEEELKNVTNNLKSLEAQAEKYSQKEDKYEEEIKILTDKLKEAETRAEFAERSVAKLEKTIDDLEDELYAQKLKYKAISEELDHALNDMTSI
UniProt Q8N2U0: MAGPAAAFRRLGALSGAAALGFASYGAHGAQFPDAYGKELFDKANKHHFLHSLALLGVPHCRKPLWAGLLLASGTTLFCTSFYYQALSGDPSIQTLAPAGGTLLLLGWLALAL
UniProt P02585, whole entry, looked up: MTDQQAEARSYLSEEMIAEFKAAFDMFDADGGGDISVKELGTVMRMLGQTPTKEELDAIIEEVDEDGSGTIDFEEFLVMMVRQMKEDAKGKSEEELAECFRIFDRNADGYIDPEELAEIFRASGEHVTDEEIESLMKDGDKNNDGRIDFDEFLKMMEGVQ
UniProt Q8NCS4: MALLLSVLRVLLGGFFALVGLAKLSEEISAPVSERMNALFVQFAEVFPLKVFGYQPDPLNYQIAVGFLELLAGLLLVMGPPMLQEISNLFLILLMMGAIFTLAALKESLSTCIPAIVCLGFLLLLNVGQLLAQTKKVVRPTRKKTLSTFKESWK
UniProt Q9BVT8: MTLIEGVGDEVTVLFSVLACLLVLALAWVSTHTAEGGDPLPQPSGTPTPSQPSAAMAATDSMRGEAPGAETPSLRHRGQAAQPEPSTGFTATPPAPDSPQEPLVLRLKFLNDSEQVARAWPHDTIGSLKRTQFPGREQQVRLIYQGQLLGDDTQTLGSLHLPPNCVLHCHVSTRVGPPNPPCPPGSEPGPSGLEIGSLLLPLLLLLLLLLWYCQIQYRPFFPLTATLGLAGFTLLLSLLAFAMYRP
UniProt Q96HH6: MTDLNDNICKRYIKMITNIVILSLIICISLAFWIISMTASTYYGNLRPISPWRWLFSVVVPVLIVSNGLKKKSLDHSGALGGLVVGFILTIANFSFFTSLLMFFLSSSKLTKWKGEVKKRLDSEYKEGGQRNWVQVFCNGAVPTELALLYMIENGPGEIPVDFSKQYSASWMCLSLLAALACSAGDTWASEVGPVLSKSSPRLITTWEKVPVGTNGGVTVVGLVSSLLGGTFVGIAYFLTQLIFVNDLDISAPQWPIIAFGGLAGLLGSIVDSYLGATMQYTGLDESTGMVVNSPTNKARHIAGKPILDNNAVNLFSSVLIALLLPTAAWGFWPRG
UniProt Q9H3S4: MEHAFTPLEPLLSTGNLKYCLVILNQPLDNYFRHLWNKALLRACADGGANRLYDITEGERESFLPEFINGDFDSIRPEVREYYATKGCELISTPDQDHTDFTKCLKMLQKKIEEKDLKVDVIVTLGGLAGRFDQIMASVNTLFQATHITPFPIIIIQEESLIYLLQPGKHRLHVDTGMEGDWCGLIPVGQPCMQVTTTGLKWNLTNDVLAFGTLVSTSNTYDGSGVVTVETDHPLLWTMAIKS
UniProt P11388: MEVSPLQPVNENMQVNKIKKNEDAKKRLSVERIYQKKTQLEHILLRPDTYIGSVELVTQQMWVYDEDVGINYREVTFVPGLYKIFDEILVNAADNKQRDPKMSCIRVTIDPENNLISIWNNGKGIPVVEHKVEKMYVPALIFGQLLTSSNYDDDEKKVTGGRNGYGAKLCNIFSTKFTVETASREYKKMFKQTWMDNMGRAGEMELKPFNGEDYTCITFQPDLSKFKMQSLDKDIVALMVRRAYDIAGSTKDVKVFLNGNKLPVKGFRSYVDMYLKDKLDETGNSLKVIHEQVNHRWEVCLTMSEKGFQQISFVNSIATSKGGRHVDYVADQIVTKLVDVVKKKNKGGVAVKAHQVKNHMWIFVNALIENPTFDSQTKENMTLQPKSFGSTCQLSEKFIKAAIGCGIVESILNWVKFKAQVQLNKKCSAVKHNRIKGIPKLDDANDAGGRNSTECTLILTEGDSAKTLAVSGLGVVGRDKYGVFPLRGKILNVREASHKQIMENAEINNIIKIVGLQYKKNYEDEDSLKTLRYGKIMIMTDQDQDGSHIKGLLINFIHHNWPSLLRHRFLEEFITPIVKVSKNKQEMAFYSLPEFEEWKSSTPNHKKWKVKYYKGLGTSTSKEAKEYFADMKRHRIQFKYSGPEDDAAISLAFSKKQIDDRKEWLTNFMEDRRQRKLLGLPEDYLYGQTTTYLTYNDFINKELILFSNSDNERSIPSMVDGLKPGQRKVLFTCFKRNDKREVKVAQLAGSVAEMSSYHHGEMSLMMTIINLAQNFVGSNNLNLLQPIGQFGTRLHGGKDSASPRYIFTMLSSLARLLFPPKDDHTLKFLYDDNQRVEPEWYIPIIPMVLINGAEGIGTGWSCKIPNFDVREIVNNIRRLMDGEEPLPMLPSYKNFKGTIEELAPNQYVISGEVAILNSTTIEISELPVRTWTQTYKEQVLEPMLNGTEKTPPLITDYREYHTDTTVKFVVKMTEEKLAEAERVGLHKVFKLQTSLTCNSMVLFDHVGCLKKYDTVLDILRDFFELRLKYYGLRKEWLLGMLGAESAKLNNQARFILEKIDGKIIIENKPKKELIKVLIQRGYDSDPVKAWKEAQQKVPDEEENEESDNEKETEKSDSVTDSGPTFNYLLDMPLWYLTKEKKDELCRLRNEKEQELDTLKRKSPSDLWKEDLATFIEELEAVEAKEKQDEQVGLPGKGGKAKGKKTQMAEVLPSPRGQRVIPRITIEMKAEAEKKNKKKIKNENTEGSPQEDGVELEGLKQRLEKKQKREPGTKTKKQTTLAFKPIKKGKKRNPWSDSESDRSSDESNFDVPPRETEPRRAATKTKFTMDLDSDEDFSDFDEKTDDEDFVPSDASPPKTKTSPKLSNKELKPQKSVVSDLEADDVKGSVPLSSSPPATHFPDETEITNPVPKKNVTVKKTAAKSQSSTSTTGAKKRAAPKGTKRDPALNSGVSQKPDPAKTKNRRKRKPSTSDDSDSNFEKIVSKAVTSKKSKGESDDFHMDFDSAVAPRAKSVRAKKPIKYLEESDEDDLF
UniProt Q5JTV8: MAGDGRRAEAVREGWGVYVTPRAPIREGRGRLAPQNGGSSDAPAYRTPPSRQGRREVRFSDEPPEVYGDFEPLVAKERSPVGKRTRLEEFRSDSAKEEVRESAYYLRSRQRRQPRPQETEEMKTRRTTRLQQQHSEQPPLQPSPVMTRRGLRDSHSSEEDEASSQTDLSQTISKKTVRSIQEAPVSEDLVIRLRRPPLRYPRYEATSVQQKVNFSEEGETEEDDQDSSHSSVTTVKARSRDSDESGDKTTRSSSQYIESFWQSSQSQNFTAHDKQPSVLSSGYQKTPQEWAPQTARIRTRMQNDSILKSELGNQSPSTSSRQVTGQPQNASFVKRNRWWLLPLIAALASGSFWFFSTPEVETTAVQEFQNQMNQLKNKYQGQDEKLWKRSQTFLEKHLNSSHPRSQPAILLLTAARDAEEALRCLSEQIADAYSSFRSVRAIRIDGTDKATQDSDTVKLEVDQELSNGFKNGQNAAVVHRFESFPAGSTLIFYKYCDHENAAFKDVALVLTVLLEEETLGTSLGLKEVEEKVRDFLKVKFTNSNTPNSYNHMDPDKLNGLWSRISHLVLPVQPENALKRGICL
UniProt Q8NFQ8: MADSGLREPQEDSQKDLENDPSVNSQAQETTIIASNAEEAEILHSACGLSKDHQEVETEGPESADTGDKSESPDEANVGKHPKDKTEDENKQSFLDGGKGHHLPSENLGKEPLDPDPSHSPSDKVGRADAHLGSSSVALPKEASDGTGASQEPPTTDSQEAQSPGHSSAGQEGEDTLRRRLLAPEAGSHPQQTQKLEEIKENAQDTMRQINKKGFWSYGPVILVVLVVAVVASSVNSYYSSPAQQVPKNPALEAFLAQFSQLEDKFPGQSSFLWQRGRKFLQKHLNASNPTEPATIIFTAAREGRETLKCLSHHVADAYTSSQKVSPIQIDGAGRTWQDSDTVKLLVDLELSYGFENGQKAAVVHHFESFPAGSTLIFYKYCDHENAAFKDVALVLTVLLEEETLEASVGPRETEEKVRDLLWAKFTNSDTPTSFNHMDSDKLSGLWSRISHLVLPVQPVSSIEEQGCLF
UniProt Q71RG4: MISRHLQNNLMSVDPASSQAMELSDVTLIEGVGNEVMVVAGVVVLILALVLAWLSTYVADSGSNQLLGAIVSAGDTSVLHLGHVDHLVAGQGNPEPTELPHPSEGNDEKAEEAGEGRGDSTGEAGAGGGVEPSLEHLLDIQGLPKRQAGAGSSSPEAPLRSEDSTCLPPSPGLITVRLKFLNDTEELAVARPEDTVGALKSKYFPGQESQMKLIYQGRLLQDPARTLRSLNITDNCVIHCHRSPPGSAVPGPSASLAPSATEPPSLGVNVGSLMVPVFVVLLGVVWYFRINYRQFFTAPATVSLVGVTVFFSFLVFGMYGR

Columns and labels:
Experiment in all cases: log2 fold change, soluble protein after heating vs DMSO (PISA); higher = thermal stabilisation; K562 lysate, 10 uM; active = over 0.2 and 3.5 SD of the protein, either way, in both replicates (recomputed)
vemurafenib = compound: CCCS(=O)(=O)Nc1ccc(F)c(C(=O)c2c[nH]c3ncc(-c4ccc(Cl)cc4)cc23)c1F [vemurafenib]
Procedure, shortened: (§1)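 Log-two fold change in thermal stability relative to solvent controls is reported from duplicates. For each sample, crude K562 extract from dounce-homogenised pellets in PBS pH 7.4 with 1 mM MgCl2, at 1 mg/mL protein, was treated with 10 μM compound for 30 min. Aliquots heated for 3 min across 48°C-58°C were pooled, brought to 0.5% NP-40 at 4°C and cleared at 21,000xg for 90 min. The supernatant was quantified by TMTpro 16plex LC-MS/MS with channel sums equalised.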

[1] = compound: CCCS(=O)(=O)Nc1ccc(F)c(C(=O)c2c[nH]c3ncc(Cl)cc23)c1F
Procedure, shortened: as §1

[2] = compound: CC[C@@H]1C(=O)N(C)c2cnc(Nc3ccc(C(=O)NC4CCN(C)CC4)cc3OC)nc2N1C1CCCC1
Procedure, shortened: as §1

volasertib = compound: CC[C@@H]1C(=O)N(C)c2cnc(Nc3ccc(C(=O)N[C@H]4CC[C@H](N5CCN(CC6CC6)CC5)CC4)cc3OC)nc2N1C(C)C [volasertib]
Procedure, shortened: as §1

[3] = compound: CCn1c(C(=O)N(C2CC2)C2CC2)cc2c3c(ncn3C)c(Nc3cc(C)n(C)n3)nc21
Procedure, shortened: as §1

[4] = compound: CCn1cc(-c2ccnc3[nH]c(-c4cccc(CN(C)C)c4)cc23)c(-c2ccc(NC(=O)N(C)C)cc2)n1
Procedure, shortened: as §1

[5] = compound: CN1CCC(CNc2ccc3ncc(-c4cccc(OC(F)(F)F)c4)n3n2)CC1
Procedure, shortened: as §1

saracatinib = compound: CN1CCN(CCOc2cc(OC3CCOCC3)c3c(Nc4c(Cl)ccc5c4OCO5)ncnc3c2)CC1 [saracatinib]
Procedure, shortened: as §1

sotrastaurin = compound: CN1CCN(c2nc(C3=C(c4c[nH]c5ccccc45)C(=O)NC3=O)c3ccccc3n2)CC1 [sotrastaurin]
Procedure, shortened: as §1

alvocidib = compound: CN1CC[C@H](c2c(O)cc(O)c3c(=O)cc(-c4ccccc4Cl)oc23)[C@H](O)C1 [alvocidib]
Procedure, shortened: as §1

Tubastatin A = compound: CN1CCc2c(c3ccccc3n2Cc2ccc(C(=O)NO)cc2)C1 [Tubastatin A]
Procedure, shortened: as §1

[6] = compound: CNC(=O)C1=CC=CC=C1NC2=NC(=NC=C2Cl)NC3=C(C=C(C=C3)N4CCOCC4)OC
Procedure, shortened: as §1

defactinib = compound: CNC(=O)c1ccc(Nc2ncc(C(F)(F)F)c(NCc3nccnc3N(C)S(C)(=O)=O)n2)cc1 [defactinib]
Procedure, shortened: as §1

[7] = compound: CNc1nc(-c2ccc3c(N)n[nH]c3c2)cc(N2C[C@@H](C(=O)NC3CCCCC3)CC[C@H]2C)n1
Procedure, shortened: as §1

encorafenib = compound: COC(=O)N[C@@H](C)CNc1nccc(-c2cn(C(C)C)nc2-c2cc(Cl)cc(NS(C)(=O)=O)c2F)n1 [encorafenib]
Procedure, shortened: as §1

[8] = compound: COC(=O)[C@H](CCSC)NC(=O)C1=C(C=C(C=C1)NC[C@H](CS)N)C2=CC=CC=C2
Procedure, shortened: as §1

alisertib = compound: COc1cc(Nc2ncc3c(n2)-c2ccc(Cl)cc2C(c2c(F)cccc2OC)=NC3)ccc1C(=O)O [alisertib]
Procedure, shortened: as §1

[9] = compound: COc1cc2nc(-c3cc(F)ccc3O)nc(N[C@@H]3CNC[C@H]3C(C)(C)O)c2cc1OC
Procedure, shortened: as §1

gefitinib = compound: COc1cc2ncnc(Nc3ccc(F)c(Cl)c3)c2cc1OCCCN1CCOCC1 [gefitinib]
Procedure, shortened: as §1

barasertib = compound: CCN(CCCOc1ccc2c(Nc3cc(CC(=O)Nc4cccc(F)c4)[nH]n3)ncnc2c1)CCOP(=O)(O)O [barasertib]
Procedure, shortened: as §1

Measured: log2 fold change

TNKS (UniProt O95271)
inactive: vemurafenib -0.035 | [1] 0.124 | [2] 0.055 | volasertib -0.11 | [3] 0.027 | [4] 0.207 | [5] -0.092 | saracatinib -0.007 | sotrastaurin 0.021 | alvocidib -0.223 | Tubastatin A -0.087 | [6] 0.04 | defactinib -0.013 | [7] -0.031 | encorafenib -0.078 | [8] 0.022 | alisertib -0.002 | [9] -0.072 | gefitinib -0.069

TMEM63A (UniProt O94886)
inactive: vemurafenib -0.001 | [1] -0.016 | barasertib 0 | [2] -0.023 | volasertib 0.003 | [3] 0.048 | [4] 0.121 | [5] -0.039 | saracatinib -0.011 | sotrastaurin 0.032 | alvocidib -0.001 | Tubastatin A 0.053 | [6] 0.007 | defactinib -0.046 | [7] -0.127 | encorafenib 0.044 | [8] -0.068 | alisertib 0.045 | [9] 0.013 | gefitinib -0.073

TPRG1L (UniProt Q5T0D9)
inactive: vemurafenib 0.044 | [1] 0.031 | [2] 0.004 | volasertib -0.029 | [3] 0.154 | [4] -0.025 | [5] 0.106 | saracatinib 0.043 | sotrastaurin -0.03 | alvocidib -0.076 | Tubastatin A -0.137 | [6] 0.026 | defactinib -0.087 | [7] -0.017 | encorafenib 0 | [8] 0.045 | alisertib 0.059 | [9] -0.003 | gefitinib -0.014

TNIP2 (UniProt Q8NFZ5)
inactive: vemurafenib -0.083 | [1] -0.096 | barasertib 0.074 | [2] 0.114 | volasertib -0.041 | [4] -0.191 | [5] 0 | sotrastaurin 0.104 | alvocidib -0.102 | [6] -0.163 | defactinib 0.049 | encorafenib 0.049 | [8] -0.062 | alisertib -0.181 | [9] -0.036 | gefitinib -0.037

TOM1L2 (UniProt Q6ZVM7)
inactive: vemurafenib 0.002 | [1] 0.053 | barasertib 0.088 | [2] 0.089 | volasertib -0.134 | [3] -0.032 | [4] -0.096 | [5] 0.024 | saracatinib -0.009 | sotrastaurin 0.003 | alvocidib -0.104 | Tubastatin A -0.01 | [6] 0.072 | defactinib 0 | [7] -0.006 | encorafenib 0.05 | [8] -0.019 | alisertib 0.016 | [9] 0 | gefitinib 0.037

TPM3 isoform 3 (UniProt P06753)
inactive: vemurafenib -0.082 | [1] 0.011 | [2] -0.187 | volasertib 0.036 | [3] 0.029 | [4] -0.493 | [5] 0.184 | saracatinib 0.009 | sotrastaurin 0.028 | alvocidib -0.202 | Tubastatin A -0.049 | [6] 0.028 | defactinib 0.074 | [7] -0.137 | encorafenib -0.014 | [8] -0.039 | [9] -0.001

TMEM256 (UniProt Q8N2U0)
inactive: vemurafenib -0.081 | [1] 0.035 | [2] -0.035 | volasertib 0.09 | saracatinib 0.132 | defactinib 0.14 | [7] 0.218 | encorafenib 0.073 | [8] -0.018 | [9] -0.255

TNNC2 (UniProt P02585)
inactive: vemurafenib -0.035 | [1] -0.006 | [2] -0.001 | volasertib 0.087 | [3] 0.007 | [4] -0.17 | [5] 0.019 | saracatinib 0.027 | sotrastaurin 0.042 | alvocidib -0.037 | Tubastatin A 0.01 | [6] 0.003 | defactinib 0.068 | [7] 0.007 | encorafenib 0.021 | [8] -0.083 | alisertib 0.044 | [9] -0.03 | gefitinib -0.084

TMEM35B (UniProt Q8NCS4)
inactive: vemurafenib 0.158 | [1] 0.184 | volasertib -0.132 | [3] 0.058 | sotrastaurin -0.004 | Tubastatin A 0.103 | [6] 0.035 | defactinib -0.167 | [9] -0.218

TMUB1 (UniProt Q9BVT8)
inactive: vemurafenib 0.018 | [1] -0.036 | barasertib 0.054 | [2] -0.051 | volasertib -0.035 | [3] 0.087 | [4] 0.064 | [5] -0.059 | saracatinib 0.122 | sotrastaurin 0.066 | alvocidib -0.008 | Tubastatin A -0.032 | [6] 0.057 | defactinib 0.057 | [7] 0.041 | encorafenib 0.03 | [8] -0.353 | alisertib 0.02 | [9] -0.087 | gefitinib -0.008

TMEM94 isoform 2 (UniProt Q12767)
inactive: vemurafenib -0.013 | [1] -0.021 | barasertib 0.292 | [2] -0.011 | volasertib 0.028 | [3] -0.099 | saracatinib 0.09 | sotrastaurin -0.059 | Tubastatin A -0.09 | [6] -0.022 | defactinib 0.059 | [7] -0.088 | encorafenib 0.06 | [8] -0.028 | [9] 0.076

TMEM19 (UniProt Q96HH6)
inactive: vemurafenib -0.098 | [1] -0.007 | [2] -0.126 | volasertib -0.02 | [3] 0.092 | sotrastaurin -0.072 | Tubastatin A -0.048 | [6] -0.047 | defactinib 0.008 | encorafenib 0.042 | [8] -0.059 | [9] -0.045

TPK1 (UniProt Q9H3S4)
inactive: vemurafenib 0.03 | [1] 0.018 | barasertib -0.093 | [2] -0.007 | volasertib -0.05 | [3] -0.045 | [4] -0.053 | [5] 0.085 | saracatinib 0.025 | alvocidib -0.061 | Tubastatin A 0.228 | [6] 0.001 | defactinib -0.058 | [7] 0.003 | encorafenib 0.118 | [8] -0.05 | alisertib 0.063 | [9] 0.033 | gefitinib 0.002

TOP2A isoform 4 (UniProt P11388)
inactive: vemurafenib 0.032 | [1] 0.022 | barasertib 0.021 | [2] 0.01 | volasertib -0.01 | [3] -0.029 | [4] -0.152 | [5] 0.046 | saracatinib 0.07 | sotrastaurin 0.017 | alvocidib -0.045 | Tubastatin A -0.043 | [6] 0.049 | defactinib 0.006 | [7] 0.014 | encorafenib 0.02 | [8] 0.048 | alisertib 0.039 | [9] -0.014 | gefitinib -0.022

TOR1AIP1 (UniProt Q5JTV8)
inactive: vemurafenib 0.06 | [1] -0.096 | barasertib -0.007 | volasertib 0.053 | saracatinib 0.128 | [6] -0.056 | defactinib -0.004 | [7] 0.014 | alisertib -0.194 | [9] 0.011 | gefitinib -0.041

TOR1AIP2 (UniProt Q8NFQ8)
inactive: vemurafenib -0.019 | [1] -0.01 | barasertib -0.017 | [2] -0.004 | volasertib -0.006 | [3] -0.013 | [4] 0.004 | [5] 0.012 | saracatinib 0.033 | sotrastaurin -0.002 | alvocidib -0.032 | Tubastatin A -0.001 | [6] 0.019 | defactinib 0.01 | [7] 0.002 | encorafenib 0.014 | [8] -0.018 | alisertib 0.019 | [9] -0.025 | gefitinib -0.011

TMUB2 (UniProt Q71RG4)
inactive: vemurafenib -0.013 | [1] 0.137 | barasertib 0.063 | [2] -0.034 | volasertib -0.149 | [3] -0.028 | [4] 0.089 | [5] -0.061 | saracatinib -0.018 | sotrastaurin 0.019 | alvocidib -0.088 | Tubastatin A 0.059 | [6] 0.065 | defactinib 0.068 | [7] 0.003 | encorafenib 0.218 | [8] -0.091 | alisertib 0 | [9] -0.053 | gefitinib -0.119
